Results on one molecule are retold here after article PMC6544321.

The chains behind the UniProt entries cited, without tags or fusion partners. Where a name states a change or a piece, a line headed by the entry shows the natural chain unless it says otherwise. Residues count along the entry.
UniProt Q12692, residues 23-119: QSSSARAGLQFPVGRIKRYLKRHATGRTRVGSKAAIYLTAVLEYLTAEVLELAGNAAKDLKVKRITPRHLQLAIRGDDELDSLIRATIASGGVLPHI

These are yes or no findings as the source states them, for the method shown. Some binding calls cover weakened binding; strength is not graded here.

The assay concerns the target H2A.Z (the H2A.Z part of yeast single-chain H2A.Z-H2B) (yeast) (UniProt Q12692). The assay can be described thus: crystal structure; Chz1-MC and scZB mixed 1:1, Superdex 200, crystals at 16°C in 0.1 M Bicine (pH 9.0), 2% 1,4-dioxane, 10% PEG 20000; 1.65 Å; both purified.

B1: middle and C-terminal region of Chz1 (Chz1 64-153) (domain or fragment, UniProt P40019 64-153)
chain: TVEDSESDMDDAKLDALMGNEGEEEEDDLAEIDTSNIITSGRRTRGKVIDYKKTAEELDKKEPSTGSKDDVGYGEKEEDDEDEEDDDFKE
Turning to B1, the binding entry is “binds”.
